PubChem BioAssay AID588497 (NMMLSC, 2011)
“And” between values parts separate entries of the source, which are not always exact repeats. Equal entries are not always repeated. Screen size: about 360,000 compounds; about 780 (0.22%) were called active. This list was built around the results that the source calls inconclusive (neither active nor inactive); the mix of calls is not that of the screen. No stated cut-off is given here; in the data, active means inhibition above about 35% (passing the limit was not always enough); inconclusive means no clear call, values can overlap the other calls.

Each compound was assayed on Botulinum neurotoxin type F light chain protease (Clostridium botulinum) (assay: BoNT/F light chain protease inhibitors, primary screen, biochemical, flow cytometry, MLPCN library (AID 588497; further: plate controls were buffer without enzyme for full effect and enzyme alone for no effect)). Conditions: Multiplex microsphere protease cleavage assay, at 10 µM, active compounds read high.
With `COc1cccc(NC(=O)c2ccc(CN3CCOCC3)cc2)c1` the inhibition was inconclusive: -15.1%.
`CS(=O)(=O)N(CC(=O)N1CCc2ccccc2C1)Cc1ccc(F)cc1` was tested, and the inhibition was inconclusive: 33.4%.
For `Cc1ccc(NC(=O)Cn2cc(C=O)c3ccccc32)cc1`, the inhibition was inconclusive: 20.1%.
`CN(C)c1nc(N2CCN(c3ccc(F)cc3)CC2)c(C#N)c(=O)o1` was tested, and the inhibition was inconclusive: -2.3%.
`Cc1c(NS(=O)(=O)c2ccc3[nH]c(=O)[nH]c3c2)c(=O)n(-c2ccccc2)n1C` was tested, and the inhibition was inactive: 6.5%.
With `Cc1oc2c(C)c3oc(=O)c(CCC(=O)NCCCCCC(=O)O)c(C)c3cc2c1C` the inhibition was inconclusive: 8.3%.
With `Nc1nnnn1/N=C/c1cc(Br)ccc1O` the inhibition was inconclusive: -11.5%.
In the case of `CCOc1ccc(N(CC(=O)N2CCN(Cc3ccccc3)CC2)S(C)(=O)=O)cc1`, the inhibition is reported as inconclusive: -21.6%.
For `CCOC(=O)C1(Cc2cccc(OC)c2)CCCN(S(=O)(=O)CC)C1` (stereo unspecified), the inhibition was inconclusive: -13.4%.
With `CSc1nc(C)c(CCOCc2ccccc2)c(=O)[nH]1` the inhibition was inactive: 16%.
`COc1ccc(Cc2nnc(NC(=O)Nc3ccccc3F)s2)cc1OC` was tested, and the inhibition was inconclusive: -23.9%.
`CCCCSc1nnc(CCCCCNC(=O)OC(C)(C)C)o1` was tested, and the inhibition was inactive: -1.9%.
`Cc1ccc(C)c(NC(=O)CN(C)C(=O)CC2OC(=O)c3ccccc32)c1` (stereo unspecified) was tested, and the inhibition was inactive: -10.5%.
`Nc1c(C(=O)NCc2cccnc2)sc(=S)n1-c1ccccc1` was tested, and the inhibition was inconclusive: 33.6%.
In the case of `Cc1cc2c3c(c1)C(C)CC(C)(C)N3C(=O)C2=C(C#N)C#N` (stereo unspecified), the inhibition is reported as inconclusive: -1.7%.
With `CCOCCCNC(=O)CN1C(=O)c2cccc3cccc1c23` the inhibition was active: 38.9%.
In the case of `CN1C(=O)/C(=C2\SC(=S)N(NC(=O)c3cccnc3)C2=O)c2ccccc21`, the inhibition is reported as inconclusive: 25.7%.
In the case of `COc1ccc(S(=O)(=O)N2CCCC(c3cc(C(=O)NCc4cccnc4)no3)C2)cc1` (stereo unspecified), the inhibition is reported as inactive: 1.6%.
`O=C(Nc1cc(Cl)cc(Cl)c1)c1coc(=O)c(Br)c1` was tested, and the inhibition was inconclusive: -16.2%.
In the case of `Cc1noc(C)c1-c1nc(CS(=O)(=O)c2ccccc2)no1`, the inhibition is reported as inconclusive: -41.6%.
In the case of `O=S(=O)(c1ccc(Cl)cc1)N1CCCC1c1cccnc1` (stereo unspecified), the inhibition is reported as inconclusive: 82.3%.
For `CCN(C(=O)COC(=O)c1ccc(O)cc1)c1cccc2ccccc12`, the inhibition was inactive: -1.2%.
For `CCOC(=O)c1nn2c(C(F)(F)F)cc(-c3ccc(OC)cc3)nc2c1Br`, the inhibition was inconclusive: 9.7%.
For `Cc1cc(=O)oc(C)c1C(=O)NCC1COc2ccccc2O1` (stereo unspecified), the inhibition was inactive: 5.5%.
`N#Cc1ccc(C(=O)CSc2n[nH]c(=O)n2Cc2ccco2)cc1` was tested, and the inhibition was inconclusive: 12.8%.
In the case of `CCn1c(=O)c(C(=O)Nn2c(C)nc3ccccc3c2=O)c(O)c2ccccc21`, the inhibition is reported as inactive: -0.1%.
With `COc1cc(C2c3cc4c(cc3OC(NCc3ccccc3)C2C)OCO4)cc(OC)c1OC` (stereo unspecified) the inhibition was inactive: -5.3%.
For `O=C(Nc1ccc(Cl)c(Cl)c1)N1CCOCC1`, the inhibition was inconclusive: -34.2%.
In the case of `O=C(NCc1ccc2c(c1)OCO2)Nc1cccc(Cl)c1`, the inhibition is reported as inconclusive: -18.4%.
`CCCCC1(C(=O)OCC)NC(c2ccc(O)cc2)C2C(=O)N(c3ccccc3)C(=O)C21` (stereo unspecified) was tested, and the inhibition was inconclusive: 7.4%.
`COc1cc(C2C3=C(CC(C)(C)CC3=O)Nc3ccccc3N2C(C)=O)cc(OC)c1OC` (stereo unspecified) was tested, and the inhibition was inconclusive: -12.1%.
In the case of `CCOCCCNC(=O)C(c1ccc(C)cc1)N(Cc1ccc2c(c1)OCO2)C(=O)CNC(C)=O` (stereo unspecified), the inhibition is reported as active: 35.1%.
In the case of `c1ccc(C[n+]2ccc3ccccc3c2)cc1`, the inhibition is reported as inconclusive: -3.8%.
In the case of `CCN(CC)CCCn1c2c(c(SCC(=O)Nc3nc4ccccc4s3)nc1=O)CCC2`, the inhibition is reported as inconclusive: 9.4%.
In the case of `CC1(C)NC(=O)N(CC(O)COc2ccc(-c3ccc(C#N)cc3)cc2)C1=O` (stereo unspecified), the inhibition is reported as inactive: 5.9%.
`CC(=O)Nc1ccc(/C=N/Nc2nncc3ccccc23)cc1` was tested, and the inhibition was active: 47.5%.
In the case of `CC(C)N(Cc1c(O)ccc2c(=O)c(-c3ccc(Cl)cc3)coc12)C(C)C`, the inhibition is reported as inconclusive: -36.6%.
`O=C(CN1CCN(c2ccccc2)CC1)Nc1ccccc1C(F)(F)F` was tested, and the inhibition was inconclusive: 5.7%.
With `O=C(COC(=O)c1ccccc1Br)NCC1CCCCC1` the inhibition was inactive: 2.1%.
`Fc1cc(F)c(F)c(SCn2cc(Br)cn2)c1F` was tested, and the inhibition was inconclusive: -3.5%.
With `O=C(c1cccs1)n1cc(C(=S)N2CCOCC2)c2ccccc21` the inhibition was inactive: 0.9%.
For `O=C(NC(=S)Nc1ccccc1C(=O)O)c1cncc(Br)c1`, the inhibition was inconclusive: 1.6%.
For `O=C(O)c1cccc2cc(-c3ccccc3)oc(=O)c12`, the inhibition was inconclusive: -31.7%.
`O=C1C(Cc2ccccc2)Nc2ncnc(N3CCOCC3)c2N1Cc1ccc(Cl)cc1` (stereo unspecified) was tested, and the inhibition was inactive: -2.7% and inactive: -2.6%.
In the case of `CCOC(=O)c1ccc(NC(=O)C(=O)NCC2(c3ccc(OC)cc3)CCOCC2)cc1`, the inhibition is reported as inconclusive: 21.6%.
With `CN(C)c1ccc(/C=N/NC(=S)NCc2ccccc2)cc1` the inhibition was inactive: -1.5%.
For `O=C(CCN1C(=O)S/C(=C\c2ccccc2)C1=O)N1CCCCC1`, the inhibition was inactive: -9.6%.
`O=C(NCCCN1CCOCC1)c1ccc2c(c1)N(Cc1cccc(Cl)c1)C(=O)c1ccccc1S2=O` (stereo unspecified) was tested, and the inhibition was inactive: -5.1%.
For `Cc1nc2nc(SCc3ccc([N+](=O)[O-])cc3)[nH]c2cc1Br`, the inhibition was inconclusive: -18.5%.
For `O=C(Nc1cccc2ncccc12)c1ccccc1Cl`, the inhibition was inconclusive: 12%.
`CCOC(=O)/C(=C\c1ccc(OC(F)F)cc1)C1=Nn2c(nnc2-c2ccc(Cl)cc2)SC1` was tested, and the inhibition was inactive: -1%.
For `COc1cc(OC)cc(C(=O)Nc2ccc(N3CCOCC3)cc2N2CCOCC2)c1`, the inhibition was inconclusive: -18.1%.
`COc1ccccc1/C=N/Nc1nc(C)cc(C)n1` was tested, and the inhibition was inconclusive: -23.2%.
`CN(/N=C/c1cc(Cl)cc(Cl)c1O)c1c(Cl)cccc1[N+](=O)[O-]` was tested, and the inhibition was inconclusive: 20.2%.
For `O=C(c1ccc(F)cc1)N1CCC2(CC1)NCCc1[nH]cnc12`, the inhibition was inactive: 5.3%.
For `C=CCn1c(NCc2cc(Cl)ccc2O)nc2ccccc21`, the inhibition was inconclusive: -50.6%.
For `COC(=O)C(CCSC)NC(=O)C(NC(=O)C1CCC(C)CC1)C(C)C` (stereo unspecified), the inhibition was inconclusive: -33.4%.
For `CN1N=C(C(C)(C)C)CSC1=Nc1ccccc1`, the inhibition was inconclusive: -68.3%.
In the case of `O=c1[nH]nc(-c2ccc[nH]2)[nH]1`, the inhibition is reported as inactive: 2.5%.
In the case of `CCCc1ncc(C(O)c2cccc3ccccc23)n1C` (stereo unspecified), the inhibition is reported as inconclusive: 7.7%.
For `O=S(=O)(c1ccc2c(c1)OCCCO2)N1CCNCC1`, the inhibition was inconclusive: 24%.
With `CCS(=O)(=O)c1ncc(CO)n1CCc1ccccc1` the inhibition was inconclusive: 17.1%.
With `CCOC(=O)N1CCN(c2c(Nc3ccc4c(c3)OCCO4)c(=O)c2=O)CC1` the inhibition was inactive: -5.1%.
In the case of `COc1ccc(CC(=O)NCCN2CCOCC2)cc1`, the inhibition is reported as inactive: 7.4%.
In the case of `N#Cc1ccc(CSc2ncccn2)cc1`, the inhibition is reported as inconclusive: 3.4%.
In the case of `O=C1CN(O)C(c2ccccc2)=c2cc(Br)ccc2=N1`, the inhibition is reported as inconclusive: -22.9%.
With `Cc1c(Cc2ccccc2)c(=O)oc2c(C)c(OCC(=O)N3CCC(C(=O)O)CC3)ccc12` the inhibition was inactive: -5%.
For `COCC1=C(C(=O)OC)C(c2ccco2)n2ncnc2N1` (stereo unspecified), the inhibition was inconclusive: -25%.
With `N#Cc1c(NC(=O)CN2CCOCC2)oc(-c2ccccc2)c1-c1ccccc1` the inhibition was inconclusive: 18.6%.
With `O=C(CN1CCc2ccccc2C1)Nc1ccccc1C(F)(F)F` the inhibition was inconclusive: -33.6%.
With `CC(=O)c1cccc(CN2CCC(CO)(CCOc3ccccc3)CC2)c1` the inhibition was inconclusive: 11.3%.
For `Cc1c([N+](=O)[O-])c(C/C=N/O)nn1C`, the inhibition was inconclusive: -29.6%.
In the case of `CC1(C(=O)O)CCCC2(C)c3cc(O)ccc3CCC12` (stereo unspecified), the inhibition is reported as inconclusive: 36%.
For `CCC(C(=O)NCCN1CCOCC1)n1c2ccccc2c2nc(=O)cc(C)n21` (stereo unspecified), the inhibition was inactive: -6.6%.
`COc1ccc(/C=N/n2c(=O)[nH]c3c([nH]c4ccc(Br)cc43)c2=O)cc1CN1CCOCC1` was tested, and the inhibition was inconclusive: -15.4%.
`O=C(NCc1ccccc1)N1CCN(c2ccccc2)CC1` was tested, and the inhibition was inconclusive: -4.3%.
In the case of `COc1ccc2c(c1)C(=C(C#N)C#N)C(=O)N2CCc1ccccc1`, the inhibition is reported as inconclusive: 16.8%.
`COn1c(C)c(C)c2c3nonc3ccc21` was tested, and the inhibition was inconclusive: 84.8%.
With `COc1ccc(/C(O)=C2\C(=O)C(=O)N(c3cc(C)on3)C2c2ccccc2OC)cc1` (stereo unspecified) the inhibition was inconclusive: -1.1%.
In the case of `COc1ccc(CC(=O)N2CCN(c3ccc(C4=NNC(=O)CC4C)cc3)CC2)cc1` (stereo unspecified), the inhibition is reported as inconclusive: -24.1%.
In the case of `COc1ccccc1OCCn1cc(/C=N/NC(=O)c2ccncc2)c2ccccc21`, the inhibition is reported as inconclusive: -37.4%.
`CC(=O)Nc1ccc(Nc2nc(-c3cc4ccccc4oc3=O)cs2)cc1` was tested, and the inhibition was inconclusive: -21.6%.
`Cc1ccc(NC(=O)CSc2cccc3cccnc23)c(C)c1` was tested, and the inhibition was inconclusive: -7.3%.
With `CC(=NCc1ccc2c(c1)OCO2)c1c(O)n(Cc2ccccc2)c(=O)[nH]c1=O` the inhibition was inconclusive: -37.7%.
For `Cc1ccc(NC(=O)CSc2nc3[nH]ncc3c(=O)[nH]2)cc1Cl`, the inhibition was inconclusive: 22%.
With `OC[C@@H]1[C@@H](c2ccc(F)cc2)C(c2ccccc2)=NN1c1ccccc1` the inhibition was inactive: -5.4%.
With `CNc1n[nH]c(-c2ccccc2)n1` the inhibition was inactive: -0.3%.
In the case of `CC(C)(C)OC(=O)NCCc1nnc(SCC(=O)Nc2ccc(Br)cc2)o1`, the inhibition is reported as inconclusive: 6.8%.
`O=C(O)CC(Sc1n[nH]c(=S)s1)C(=O)O` (stereo unspecified) was tested, and the inhibition was inconclusive: 13.7%.
In the case of `COc1ccc(OC)c(-n2c(-c3ccc(C)cc3)n[nH]c2=S)c1`, the inhibition is reported as inactive: -1.4%.
In the case of `CCCC(=O)NC(=S)Nc1ccc(S(=O)(=O)N2CCc3ccccc32)cc1`, the inhibition is reported as inconclusive: -90.6%.
